Reference: PMC4551966
No constants are given. Whether binding was seen depends on the method and setting. For some assays here: Binding calls can cover weak binding; strength is not graded here. Where a sequence is shown, tags or fusion partners need not be part of it.

Experiments:
Assay in all cases: two-hybrid; Matchmaker Gal4 system (Clontech), yeast AH109 co-transformed with bait in pGBKT7 and prey in pGADT7; selection on plates lacking adenine, histidine, leucine and tryptophan with X-α-Gal; α-galactosidase activity
[1] = target: CVB3 VP1 residues 3-284 fused to the GAL4 DNA-binding domain (pGBKT7-VP1) (Coxsackievirus B3 (CVB3))
[2] = target: CVB3 VP1 truncation segment 126-284 in pGBKT7 (Coxsackievirus B3 (CVB3))
[3] = target: CVB3 VP1 truncation segment 3-197 in pGBKT7 (Coxsackievirus B3 (CVB3))
[4] = target: CVB3 VP1 truncation segment 61-284 in pGBKT7 (Coxsackievirus B3 (CVB3))

| Binder | binding [1] | binding [2] | binding [3] | binding [4] |
| --- | --- | --- | --- | --- |
| human GM130 (C-terminal 199 amino acids) fused to the GAL4 activation domain (pGADT7-GM130) (domain or fragment, UniProt Q08379 804-1002) AMEKLQSRFMELMQEKADLKERVEELEHRCIQLSGETDTIGEYIALYQSQRAVLKERHREKEEYISRLAQDKEEMKVKLLELQELVLRLVGDRNEWHGRFLAAAQNPADEPTSGAPAPQELGAANQQGDLCEVSLAGSVEPAQGEAREGSPRDNPTAQQIMQLLREMQNPRERPGLGSNPCIPFFYRADENDEVKITVI | binds | no binding | no binding | binds |
| GM130 truncation segment 809-963 in pGADT7 (domain or fragment, UniProt Q08379 809-963) QSRFMELMQEKADLKERVEELEHRCIQLSGETDTIGEYIALYQSQRAVLKERHREKEEYISRLAQDKEEMKVKLLELQELVLRLVGDRNEWHGRFLAAAQNPADEPTSGAPAPQELGAANQQGDLCEVSLAGSVEPAQGEAREGSPRDNPTAQQI | no binding | – | – | – |
| GM130 truncation segment 914-1002 in pGADT7 (domain or fragment, UniProt Q08379 914-1002) PTSGAPAPQELGAANQQGDLCEVSLAGSVEPAQGEAREGSPRDNPTAQQIMQLLREMQNPRERPGLGSNPCIPFFYRADENDEVKITVI | binds | – | – | – |
| GM130 truncation segment 850-987 in pGADT7 (domain or fragment, UniProt Q08379 850-987) YQSQRAVLKERHREKEEYISRLAQDKEEMKVKLLELQELVLRLVGDRNEWHGRFLAAAQNPADEPTSGAPAPQELGAANQQGDLCEVSLAGSVEPAQGEAREGSPRDNPTAQQIMQLLREMQNPRERPGLGSNPCIPF | no binding | – | – | – |
| MQLLREMQNPRERPGLGSNPCIPFFYRADENDEVKITVI (domain or fragment, UniProt Q08379 964-1002) [GM130 truncation segment 964-1002 in pGADT7] | no binding | – | – | – |
